Results as given in publication PMC11324517 (Nature, 2024).
No constants are given. Whether binding was seen depends on the method and setting.

Target: Δ-hDAT (human dopamine transporter lacking the N-terminal 56 residues, with the thermostabilising mutation I248Y) (human) (UniProt Q01959)
Assay: cryo-EM structure + SEC; detergent-solubilised, purified Δ-hDAT (digitonin/CHS, 50 mM HEPES pH 7.8, 200 mM NaCl, with MRS7292 and β-CFT); single-particle classifications and biochemical analysis (FSEC of the purified protein); both purified

binding: no binding
Substance: Δ-hDAT (human dopamine transporter lacking the N-terminal 56 residues, with the thermostabilising mutation I248Y) (from UniProt Q01959 57-620)
